From PubChem BioAssay AID1347426 (Functional Genomics Laboratory (NCATS/FGL), 2020)
In all, about 31,000 sequences went through this assay and about 1,400 (4.5%) were called active.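 Rule for the calls: active = median seed-adjusted z-score above 1 or below -1; inactive = the rest.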 This is one part of the list.

Experiment: Novel Modifiers of Survival Motor Neuron (SMN) Protein: Gene Identification via Genome-wide siRNA Screen;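 note: luminescence tracks full-length SMN protein made from the SMN2 reporter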
Conditions: HEK293T SMN2-luciferase reporter, siRNA knockdown, 72 h; actives lie on both sides
Method in brief: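 HEK293T cells stably carrying an SMN2 promoter/splicing cassette–luciferase reporter were reverse-transfected with 1 pmol siRNA per well (druggable-genome library, 3 siRNAs per gene) and grown 72 h at 37 °C. Luminescence, normalized to negative-control siRNA and log10-transformed, was scored as MAD.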

Sequence	median seed-adjusted z-score
GGAAUAGACUUCAAGAUCATT against RAB10	inactive: -0.319
GCUUUAGAAUACAUACCAATT against IFIT2	inactive: -0.0205
CCUCCUAUUUAAUUUCCUUTT against MAS1L	inactive: 0.0585
GUAUCAAGGUUGGGCGAGATT against MYH11	inactive: 0
GGUCAACGUGAUGUCCGAATT against ACOT7	inactive: 0.665
CACCAGAUCUUCAAUCUAUTT against PPP1CC	inactive: -0.344
CCUUCUUCGACAACAGGAATT against TESC	inactive: -0.17
CGUCCACCAUCUGCAAGUATT against MKRN2	inactive: 0
GCUGCGAAAGGAUCUCAAATT against UBE3B	inactive: 0.0972
UAACCCUCAUGGACGCAGATT against SOX15	inactive: -0.376
CUACUUAUCAGGUCACGUATT against SLC35A3	inactive: 0.321
CAGUCUUCAUUGCUACUAATT against NFE2L2	inactive: -0.596
GCUUUAUGCUGCUAAGGCATT against PGD	active: -1.55
CACCCUUGUUUUGCCGAAATT against STAP1	inactive: 0
CCAAGAUGAUCUUCGAGUATT against MYO6	inactive: 0
CCACAGUUAUCGACAUGAATT against KCNJ15	inactive: 0.0332
GGCUUCUCAUCGGAUCAGATT against TESC	inactive: -0.17
GGAUGAAAUACUAGAGAAATT against EIF2S2	inactive: 0.576
CCAGCAUAUCAAAUCAAGATT against TSGA14	inactive: 0.433
GCACUUAAAUAGUACUGAUTT against CLK4	inactive: -0.201
ACCUCAACUCGGCACUGGATT against NEUROG3	inactive: 0.212
CAUGGACCCUGGUUACAAATT against SUFU	inactive: -0.263

Laid out differently: results already given
Sequence | median seed-adjusted z-score
CGUCCACCAUCUGCAAGUATT against MKRN2 | inactive: 0
UAACCCUCAUGGACGCAGATT against SOX15 | inactive: -0.376
CACCCUUGUUUUGCCGAAATT against STAP1 | inactive: 0
CCACAGUUAUCGACAUGAATT against KCNJ15 | inactive: 0.0332

The listing continues:

Sequence	median seed-adjusted z-score
CGGCACAACCUAUCCCUCATT against FOXN1	inactive: 0.226
GUUGUUCCCUAAUGGGUUATT against GDPD4	inactive: 0.0109
AGAGCAUUCACAAACUGAATT against RBM8A	inactive: 0
GAUCAAGUCUAACUACCCATT against ZNF160	inactive: -0.454
CCUGUAGAUUUGUCAACUATT against RANBP2	active: 1.53
GGCUAAUACUGGAAUUGCUTT against SLC38A2	active: -1.04
GACAUUGCUAUGACAGAUATT against FKBP7	inactive: -0.053
UGAUCAGGCAGGUUCAUAATT against GSTM5	inactive: -0.861
GAAGGGACGUGAGCUAUAATT against RSHL3	inactive: -0.407
GGAGGAUGAGUGACGAGUUTT against BAD	inactive: 0
GGCUGAAGGACUUACGACUTT against INTS6	inactive: -0.0163
GCUCUGUACCAUUUCAGCATT against KLK1	inactive: -0.216
CGGUUGCUGUGGACUCUUATT against ALG12	inactive: -0.401
GCCCACAUGUUUAAGGACATT against KCTD9	active: 1.31
GAGUUCCACUUCAUGCAAATT against CABC1	inactive: -0.197
UGUUGACACUUUUAUCCAATT against ANAPC11	inactive: -0.581
CGGUCCAGUUUGUAUCGGATT against ZFP64	inactive: -0.659
GGCGAUGAACAAUAUCCUATT against FAP	inactive: -0.258
GGCUCUUUCAAGAUAGUAATT against AHR	inactive: -0.0422
GGUGCUCAGCAAAUGCCUATT against CRCT1	inactive: -0.146
ACAUAUGAACGAACCCUGATT against GEM	inactive: 0.018
CAAGACAUGCUUUAAAUGUTT against ZCCHC3	inactive: -0.849

Sequence	median seed-adjusted z-score
AUUUGUUGGUUGUCGAAUATT against GPR143	inactive: 0.366
CCAAUUCUACAAAAGCAAATT against SRD5A3	inactive: -0.165
GGAUGUUGACUGCCUUGAATT against CCNE1	inactive: -0.693
GGAGAUCUUUCACCUACAATT against ZNF658	inactive: 0.091
GAACAAUGCUGUACCAGCATT against INS	inactive: 0
GAGUGGACGGUUUAUCAUATT against TXNDC1	inactive: 0.458
GGAAAACUGCGUACUCAUATT against PSMD11	inactive: -0.156
GGACAAGGAGUGUCGGAGATT against ZFYVE21	inactive: -0.186
GGUAGUGCCUGUUUGGAUATT against CYP4F2	inactive: -0.387
GGAUGUAUUCUGACGAUGATT against CLASP1	inactive: 0.0472
GCGACUACGUGAUUGGAAUTT against KCNK17	inactive: -0.579
CAACGAGAAUGACUGCUGATT against PTPDC1	inactive: -0.191
GCCUGUGAAAUGUAUACUATT against ESCO1	inactive: 0.755
CGGAAUUAGUGUUAUCCAUTT against CEBPG	inactive: -0.561
GCAGUCCUCCAUUAAGGUATT against NR4A2	inactive: -0.654
GGGAUUUCGCUUCUACUCATT against FCRL5	inactive: -0.138
AAUCGAGAGUGGUACCAGATT against PDE4C	inactive: 0.565
GGAUUUAUACAGUGCACUATT against CPVL	inactive: 0.334
GCAAGACAAGUGAAGUCAATT against CNBP	active: -1.14
CAACCAUUCUUAGUAAGAUTT against CCNC	inactive: -0.606
AGACUACCAGGAUAACAAATT against EIF1AX	inactive: 0.878
UGGUGCUGUUGGUAAAACATT against CDC42	inactive: -0.0938

Sequence	median seed-adjusted z-score
GAAUCGGCGUGAUAACCAUTT against SLC34A2	inactive: 0
GGAUAAUGAUGACGGGAGATT against SYT9	inactive: 0.0419
CAGGUCGACUGAUAGAUCATT against DDX42	active: -2.13
GCCCAGCUAUGUGACUUCATT against CLTB	inactive: 0.319
CGACACCAGGAGUACCUCUTT against IKBKE	inactive: 0.122
GCAUAUGAUUUUAUGGUAATT against FBXW7	inactive: 0
GCUUUACCGUGAACCUCCATT against PKLR	inactive: 0.587
GGAUACAGACGAUACCGAATT against USP8	inactive: 0.743
GGAACGAGAUGAUCAUGUUTT against SYT13	inactive: 0.275
CAUCAUUACAUAUGCGGUATT against MFSD2	inactive: -0.325
GGUUUAGGAAGGAAACGAATT against VENTX	inactive: 0.669
CUCCAUGGAUUAUGCUAUATT against ZNF398	inactive: 0.119
CCUCAACUCUCUACGCUUUTT against KIFC1	inactive: 0.0417
GGUAAAACCUUCAACCGCATT against ZNF584	inactive: 0.172
GUUGUGGUCUGAUCAGUUATT against TUBA1A	inactive: 0.284
CAACUAUCAUGCUUCGGAUTT against SPOP	inactive: 0.000304
AAAGUACAUUGUCCAAUCATT against ADPRH	inactive: -0.406
CAGUGGACAUUGUCAAGCATT against PARP14	inactive: -0.289
CAACGAUAUUUGGAUAUCUTT against DPP8	inactive: -0.0209
GGUGGUCGGAGAUACCAAATT against UCP2	inactive: -0.111
CAUGCAAUCUAUCUCAUUUTT against SHC1	inactive: 0.0401
AGGCAGAGCUGGUACGACUTT against B3GAT3	inactive: -0.00603

Sequence	median seed-adjusted z-score
AUACGGCUCUAACAGAUUATT against DBI	inactive: 0.0661
GGUUUACCAUGGACCAGGATT against PNLIPRP3	inactive: -0.287
GAUCAGGAGUCCUUCAAUATT against RAB1A	inactive: 0.395
GGACUGUGACGACAUCUAUTT against MFAP4	inactive: -0.28
GGAGCAGGAUAGUGCCUUUTT against PML	inactive: -0.415
GCAUGAUCUAGAUCGAGUATT against UQCRFS1	active: -1.28
GCGUGACCGUUCUCUUAUUTT against NUDT14	inactive: 0.479
GCCUAUGACCUUCUACUUUTT against SLC31A1	inactive: 0
CAAUGGGAUUGAGAUCAAATT against EIF2C1	inactive: 0.215
GUGCUACUUUGGACGUAAATT against SEC23B	inactive: 0.48
AGCCUGAAAGUAUCCGUAATT against CLTA	inactive: 0.243
AGCCUUCACUCAACUCUCATT against ZNF250	inactive: -0.00985
GGAUUGGACCCUUCCAAGATT against CRHBP	inactive: -0.0443
GGAGAGUGCUACAAGGUGATT against COL6A2	inactive: 0.0119
ACAUAUAGGUAUCGACCAATT against PRICKLE2	active: -1.12
CCGGUGAAAUUUCAUUCUATT against TRIM58	inactive: -0.582
GAAGCUAUAGAAAGGUUAATT against RAD23B	inactive: 0.639
CUACAUGAAUAGCAGUAAATT against FMNL2	inactive: 0.293
GCGAAAUGACUUAUACUAUTT against HLTF	inactive: -0.00902
GCCUACCCAUUUGUGAACATT against PEX12	inactive: -0.129

Taken from above:
Value for GCCUAUGACCUUCUACUUUTT against SLC31A1 under median seed-adjusted z-score: inactive: 0
Value for CCGGUGAAAUUUCAUUCUATT against TRIM58 under median seed-adjusted z-score: inactive: -0.582
Value for GGAUUGGACCCUUCCAAGATT against CRHBP under median seed-adjusted z-score: inactive: -0.0443
